Experimental data taken from article doi:10.1101/2020.02.02.931204.

Sequences of proteins named here, by UniProt entry; tags and fusion partners are left off.
UniProt P37285: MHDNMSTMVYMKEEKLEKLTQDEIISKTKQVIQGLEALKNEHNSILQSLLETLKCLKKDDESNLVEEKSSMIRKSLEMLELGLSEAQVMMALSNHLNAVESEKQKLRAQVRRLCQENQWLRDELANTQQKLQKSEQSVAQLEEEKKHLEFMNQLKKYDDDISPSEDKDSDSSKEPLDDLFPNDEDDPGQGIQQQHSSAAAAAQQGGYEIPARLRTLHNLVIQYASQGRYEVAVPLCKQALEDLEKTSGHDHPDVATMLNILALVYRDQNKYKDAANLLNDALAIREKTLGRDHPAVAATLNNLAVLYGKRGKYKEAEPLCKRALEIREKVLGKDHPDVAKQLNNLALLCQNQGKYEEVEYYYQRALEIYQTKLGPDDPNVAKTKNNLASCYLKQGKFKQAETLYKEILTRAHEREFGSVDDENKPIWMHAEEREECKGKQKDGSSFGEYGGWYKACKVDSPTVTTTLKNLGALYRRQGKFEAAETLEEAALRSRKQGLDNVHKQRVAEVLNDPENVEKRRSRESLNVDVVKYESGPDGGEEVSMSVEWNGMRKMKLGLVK
UniProt Q6QLM7: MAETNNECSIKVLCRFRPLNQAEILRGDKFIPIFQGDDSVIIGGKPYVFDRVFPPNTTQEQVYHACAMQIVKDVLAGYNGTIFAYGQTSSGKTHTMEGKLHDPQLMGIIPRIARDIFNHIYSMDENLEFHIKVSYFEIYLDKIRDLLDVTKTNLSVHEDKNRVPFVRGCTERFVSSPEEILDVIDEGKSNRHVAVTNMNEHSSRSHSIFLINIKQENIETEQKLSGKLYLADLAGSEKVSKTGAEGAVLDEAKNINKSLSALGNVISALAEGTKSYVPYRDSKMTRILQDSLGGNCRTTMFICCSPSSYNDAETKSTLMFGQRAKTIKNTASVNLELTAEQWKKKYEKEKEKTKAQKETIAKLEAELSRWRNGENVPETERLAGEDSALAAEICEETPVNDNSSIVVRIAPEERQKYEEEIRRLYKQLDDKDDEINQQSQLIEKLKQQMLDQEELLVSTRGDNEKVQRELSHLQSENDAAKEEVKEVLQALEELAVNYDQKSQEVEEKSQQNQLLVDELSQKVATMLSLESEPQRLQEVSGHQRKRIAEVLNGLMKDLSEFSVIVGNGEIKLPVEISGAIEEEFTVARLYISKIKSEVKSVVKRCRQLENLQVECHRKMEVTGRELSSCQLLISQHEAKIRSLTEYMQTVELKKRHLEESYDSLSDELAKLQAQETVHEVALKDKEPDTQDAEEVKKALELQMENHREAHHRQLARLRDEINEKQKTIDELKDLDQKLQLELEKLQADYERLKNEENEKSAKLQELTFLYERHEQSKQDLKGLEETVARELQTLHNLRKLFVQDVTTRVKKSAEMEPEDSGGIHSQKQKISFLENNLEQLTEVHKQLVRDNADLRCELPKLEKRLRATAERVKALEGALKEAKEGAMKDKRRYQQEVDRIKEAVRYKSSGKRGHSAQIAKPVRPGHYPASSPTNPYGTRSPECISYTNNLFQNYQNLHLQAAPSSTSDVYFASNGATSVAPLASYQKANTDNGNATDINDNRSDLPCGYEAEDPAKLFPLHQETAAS

Experiments:
[1] = biological target: KLC1, endogenous in DRG sensory neurons (rat (endogenous in DRG sensory neurons)) (UniProt P37285); assay: affinity purification with mass spectrometry
[2] = biological target: Splicing factor proline/glutamine-rich (SFPQ), endogenous in DRG sensory neurons (rat (endogenous in DRG sensory neurons)); assay: affinity purification with mass spectrometry

binding [1]: binds
Molecule: KIF5A, endogenous in DRG sensory neurons (from UniProt Q6QLM7 1-1027)

binding [2]: binds
B1: PSPC1, endogenous in DRG sensory neurons (protein, UniProt Q4KLH4 1-522)
chain: MMLRGNLKQVRIEKNPARLRALESAAGESEPVAAAAMALTLAGEQPPPPAPSEEHPDEEMGFTIDIKSFLKPGEKTYTQRCRLFVGNLPTDITEEDFKRLFERYGEPSEVFINRDRGFGFIRLESRTLAEIAKAELDGTILKSRPLRIRFATHGAALTVKNLSPVVSNELLEQAFSQFGPVEKAVVVVDDRGRATGKGFVEFAAKPPARKALERCGDGAFLLTTTPRPVIVEPMEQFDDEDGLPEKLMQKTQQYHKEREQPPRFAQPGTFEFEYASRWKALDEMEKQQREQVDRNIREAKEKLEAEMEAARHEHQLMLMRQDLMRRQEELRRLEELRNQELQKRKQIQLRHEEEHRRREEEMIRHREQEELRRQQEGFKPNYMENREQEMRMGDMGPRGAINMGDAFSPAPAGTQGPPPMMGMNMNNRGTIPGPPMGPGPAMGPEGAANMGTPMIPDNGAVHNDRFPQGPPSQMGSPMGNRTGSETPQAPMSAVGPVSGGPGGFGRGSQGGNFEGPNKRRRY

Results are given in words; binding and its absence hold for the method and conditions named. Binding seen in cells or lysates may run through a third protein. Here binding means that the protein was enriched with, or labelled near, the bait; the list need not be complete. One block for each molecule: values may come before it.
